Test results reported in PMC7072344, “Structure–Activity Relationship of HER2 Receptor Targeting Peptide and Its Derivatives in Targeted Tumor Therapy” (Biomolecules, 2020).
Results are given in words; binding and its absence hold for the method and conditions named. Some binding calls cover weakened binding; strength is not graded here.

Columns and labels:
[1] = target: human epidermal growth factor 2 (HER2) receptor (human (endogenous in MDA-MB-453, MDA-MB-435 Br, MCF-7)) (UniProt P04626); assay: flow cytometry on cells; blocking experiment: MDA-MB-453 cells preincubated with unlabeled peptide (65 µM, 30 min) before the corresponding CF-labelled peptide (12.5 or 6.25 µM, 3 h); only the binder purified
[2] = target: human epidermal growth factor 2 (HER2) receptor (human (endogenous in MDA-MB-453, MDA-MB-435 Br, MCF-7)) (UniProt P04626); assay: flow cytometry on cells; MDA-MB-453 cells incubated with CF-labelled peptides, 12.5 µM, 3 h, 37 °C, 5 min trypsinization; read-out percentage of CF+ live cells and mean fluorescence intensity; only the binder purified
[3] = target: human epidermal growth factor 2 (HER2) receptor (human (endogenous in MDA-MB-453, MDA-MB-435 Br, MCF-7)) (UniProt P04626); assay: flow cytometry on cells; reversed combined CF-labelled peptide on cells (Figure 6D,E); cell line, concentration and time are not told for these panels; only the binder purified
[4] = target: human epidermal growth factor 2 (HER2) receptor (human (endogenous in MDA-MB-453, MDA-MB-435 Br, MCF-7)) (UniProt P04626); assay: flow cytometry on cells; MDA-MB-435 Br and MCF-7 cells (medium HER2 expression), with HCC1143 cells (HER2 under the detection limit) as negative control; CF-labelled compounds 12.5 µM, 3 h; only the binder purified

Binder | binding [1] | binding [2] | binding [3] | binding [4]
GYYNPTKAAYSL (5(6)-carboxyfluorescein (CF) on the N-terminus; C-terminal amide) |  |  | binds weakly | 
KAAYSLGYYNPT (5(6)-carboxyfluorescein (CF) on the N-terminus; C-terminal amide) | binds |  |  | binds

The next lines start with the values.

binding [1] | binding [2] | binding [3] | binding [4] | Binder
binds | binds |  |  | KSCYSLGYYNPT (5(6)-carboxyfluorescein (CF) on the N-terminus; C-terminal amide)
binds |  |  |  | KAAYSLGYYNPT (C-terminal amide)
binds |  |  |  | KSCYSLGYYNPT (C-terminal amide)
